{"source": "PubChem BioAssay AID1224830 (NIAID, 2016)", "test": "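Genes whose knock-down alters the TNF-alpha reporter response to LPS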 (primary screen)", "system": "human THP-1 monocytic leukaemia cells, TNF dual-luciferase reporter clone, PMA-differentiated to macrophage-like cells", "reagents": "siRNA pool against human genes, 50 nM", "time to read-out": "LPS for 4 h, given about 3 days after siRNA transfection", "treatment": "bacterial LPS (TLR4 ligand), 10 ng/ml", "read-out": "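Ratio of firefly to renilla light, scaled to the plate median and expressed as a robust z-score per replicate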", "scale": "TNF reporter robust z-score: higher = stronger TNF reporter response to LPS", "call rule": "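a well is active when its z-score exceeds 2.8 or falls below -1.5; control wells carry no call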", "note": "Here is a random part of about 18,000 deposited reagents. In the full data, about 2,900 (16%) got an active call. 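Calls are made per well; low scores hint the gene aids the LPS response, high scores that it dampens it.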 Repeated entries: four replicate wells of each siRNA pool. Reagent sequences are not shown."}
{"gene": "FKBP7 (GeneID 51661)", "TNF reporter robust z-score": 0.03, "Call": "inactive"}
{"gene": "FKBP7 (GeneID 51661)", "TNF reporter robust z-score": 1.66, "Call": "inactive"}
{"gene": "FKBP7 (GeneID 51661)", "TNF reporter robust z-score": 1.83, "Call": "inactive"}
{"gene": "FKBP7 (GeneID 51661)", "TNF reporter robust z-score": 3.84, "Call": "active"}
{"gene": "YWHAH (GeneID 7533)", "TNF reporter robust z-score": -0.56, "Call": "inactive"}
{"gene": "YWHAH (GeneID 7533)", "TNF reporter robust z-score": -0.91, "Call": "inactive"}
{"gene": "YWHAH (GeneID 7533)", "TNF reporter robust z-score": -0.86, "Call": "inactive"}
{"gene": "YWHAH (GeneID 7533)", "TNF reporter robust z-score": -0.9, "Call": "inactive"}
{"gene": "SEC11C (GeneID 90701)", "TNF reporter robust z-score": -0.84, "Call": "inactive"}
{"gene": "SEC11C (GeneID 90701)", "TNF reporter robust z-score": -0.59, "Call": "inactive"}
{"gene": "SEC11C (GeneID 90701)", "TNF reporter robust z-score": 1.75, "Call": "inactive"}
{"gene": "SEC11C (GeneID 90701)", "TNF reporter robust z-score": -1.36, "Call": "inactive"}
{"gene": "OR51Q1 (GeneID 390061)", "TNF reporter robust z-score": -0.29, "Call": "inactive"}
{"gene": "OR51Q1 (GeneID 390061)", "TNF reporter robust z-score": -0.09, "Call": "inactive"}
{"gene": "OR51Q1 (GeneID 390061)", "TNF reporter robust z-score": -0.19, "Call": "inactive"}
{"gene": "OR51Q1 (GeneID 390061)", "TNF reporter robust z-score": 0.44, "Call": "inactive"}
{"gene": "MTMR11 (GeneID 10903)", "TNF reporter robust z-score": 0.72, "Call": "inactive"}
{"gene": "MTMR11 (GeneID 10903)", "TNF reporter robust z-score": 0.43, "Call": "inactive"}
{"gene": "MTMR11 (GeneID 10903)", "TNF reporter robust z-score": 0.26, "Call": "inactive"}
{"gene": "MTMR11 (GeneID 10903)", "TNF reporter robust z-score": 2.98, "Call": "active"}

7 entries from above, set out differently:
SEC11C (GeneID 90701) → TNF reporter robust z-score = -0.59; Call = inactive
SEC11C (GeneID 90701) → TNF reporter robust z-score = 1.75; Call = inactive
SEC11C (GeneID 90701) → TNF reporter robust z-score = -1.36; Call = inactive
OR51Q1 (GeneID 390061) → TNF reporter robust z-score = -0.29; Call = inactive
OR51Q1 (GeneID 390061) → TNF reporter robust z-score = -0.09; Call = inactive
OR51Q1 (GeneID 390061) → TNF reporter robust z-score = -0.19; Call = inactive
OR51Q1 (GeneID 390061) → TNF reporter robust z-score = 0.44; Call = inactive

The list goes on.
{"gene": "CORO1B (GeneID 57175)", "TNF reporter robust z-score": -1.51, "Call": "active"}
{"gene": "CORO1B (GeneID 57175)", "TNF reporter robust z-score": -1.15, "Call": "inactive"}
{"gene": "CORO1B (GeneID 57175)", "TNF reporter robust z-score": -1.69, "Call": "active"}
{"gene": "CORO1B (GeneID 57175)", "TNF reporter robust z-score": -1, "Call": "inactive"}
{"gene": "SLC6A5 (GeneID 9152)", "TNF reporter robust z-score": 0.06, "Call": "inactive"}
{"gene": "SLC6A5 (GeneID 9152)", "TNF reporter robust z-score": 2.2, "Call": "inactive"}
{"gene": "SLC6A5 (GeneID 9152)", "TNF reporter robust z-score": -0.93, "Call": "inactive"}
{"gene": "SLC6A5 (GeneID 9152)", "TNF reporter robust z-score": -0.46, "Call": "inactive"}
{"gene": "TNP1 (GeneID 7141)", "TNF reporter robust z-score": -0.91, "Call": "inactive"}
{"gene": "TNP1 (GeneID 7141)", "TNF reporter robust z-score": -0.89, "Call": "inactive"}
{"gene": "TNP1 (GeneID 7141)", "TNF reporter robust z-score": -1.5, "Call": "inactive"}
{"gene": "TNP1 (GeneID 7141)", "TNF reporter robust z-score": -0.82, "Call": "inactive"}
{"gene": "PPP3CA (GeneID 5530)", "TNF reporter robust z-score": 0.12, "Call": "inactive"}
{"gene": "PPP3CA (GeneID 5530)", "TNF reporter robust z-score": 0.1, "Call": "inactive"}
{"gene": "PPP3CA (GeneID 5530)", "TNF reporter robust z-score": -0.35, "Call": "inactive"}
{"gene": "PPP3CA (GeneID 5530)", "TNF reporter robust z-score": -0.43, "Call": "inactive"}
{"gene": "HOXA2 (GeneID 3199)", "TNF reporter robust z-score": 1.6, "Call": "inactive"}
{"gene": "HOXA2 (GeneID 3199)", "TNF reporter robust z-score": 0.71, "Call": "inactive"}
{"gene": "HOXA2 (GeneID 3199)", "TNF reporter robust z-score": 1.55, "Call": "inactive"}
{"gene": "HOXA2 (GeneID 3199)", "TNF reporter robust z-score": 1.01, "Call": "inactive"}
{"gene": "CRAMP1 (GeneID 57585)", "TNF reporter robust z-score": -0.76, "Call": "inactive"}
{"gene": "CRAMP1 (GeneID 57585)", "TNF reporter robust z-score": -0.78, "Call": "inactive"}
{"gene": "CRAMP1 (GeneID 57585)", "TNF reporter robust z-score": -1.19, "Call": "inactive"}
{"gene": "CRAMP1 (GeneID 57585)", "TNF reporter robust z-score": -0.66, "Call": "inactive"}
{"gene": "CTSO (GeneID 1519)", "TNF reporter robust z-score": 2.21, "Call": "inactive"}
{"gene": "CTSO (GeneID 1519)", "TNF reporter robust z-score": -0.71, "Call": "inactive"}
{"gene": "CTSO (GeneID 1519)", "TNF reporter robust z-score": 0.75, "Call": "inactive"}
{"gene": "CTSO (GeneID 1519)", "TNF reporter robust z-score": 0.62, "Call": "inactive"}
